The values below come from publication PMC6955869.

The assay deals with T1, Epstein-Barr virus BBRF2 protein, HA-tagged (Epstein-Barr virus) (UniProt P29882).
T1 sequence: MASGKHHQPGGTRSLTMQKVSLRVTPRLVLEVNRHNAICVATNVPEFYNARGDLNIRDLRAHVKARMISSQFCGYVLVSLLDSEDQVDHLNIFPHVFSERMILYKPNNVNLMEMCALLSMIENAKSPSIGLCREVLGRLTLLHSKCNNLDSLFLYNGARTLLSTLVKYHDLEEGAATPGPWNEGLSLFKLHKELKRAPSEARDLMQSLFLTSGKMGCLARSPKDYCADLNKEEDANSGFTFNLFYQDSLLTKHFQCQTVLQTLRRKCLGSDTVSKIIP
Description: co-IP; HEK293T cells cotransfected with expression plasmids; lysates after 24 h; immunoprecipitation with anti-HA antibody and G-Sepharose at 4 °C, then immunoblotting. Background: Immunoblotting shows a protein as a band on a membrane.

Results are given in words; binding and its absence hold for the method and conditions named. In cells and extracts the contact can be indirect. Some entries that bind do so weakly or less than the wild type. Where a sequence is shown, tags or fusion partners need not be part of it.

B1: Epstein-Barr virus tegument protein BGLF2 (protein, UniProt P0CK53 1-336)
chain: MASAANSSREQLRKFLNKECLWVLSDASTPQMKVYTATTAVSAVYVPQIAGPPKTYMNVTLIVLKPKKKPTYVTVYINGTLATVARPEVLFTKAVQGPHSLTLMYFGVFSDAVGEAVPVEIRGNPVVTCTDLTTAHVFTTSTAVKTVEELQDITPSEIIPLGRGGAWYAEGALYMFFVNMDMLMCCPNMPTFPSLTHFINLLTRCDNGECVTCYGAGAHVNILRGWTEDDSPGTSGTCPCLLPCTALNNDYVPITGHRALLGLMFKPEDAPFVVGLRFNPPKMHPDMSRVLQGVLANGKEVPCTAQPWTLLRFSDLYSRAMLYNCQVLKRQVLHSY
In the case of B1, the binding entry is given as “binds”.
